Assay results published in ChEMBL document CHEMBL4138254 (ACS Med Chem Lett, 2017).
Values after ≈ are worked out from the molar mass of the structure shown.

Sequences of proteins named here, by UniProt entry; tags and fusion partners are left off. A change or cut given only in a name is not applied to a line headed by its entry.
UniProt Q12809: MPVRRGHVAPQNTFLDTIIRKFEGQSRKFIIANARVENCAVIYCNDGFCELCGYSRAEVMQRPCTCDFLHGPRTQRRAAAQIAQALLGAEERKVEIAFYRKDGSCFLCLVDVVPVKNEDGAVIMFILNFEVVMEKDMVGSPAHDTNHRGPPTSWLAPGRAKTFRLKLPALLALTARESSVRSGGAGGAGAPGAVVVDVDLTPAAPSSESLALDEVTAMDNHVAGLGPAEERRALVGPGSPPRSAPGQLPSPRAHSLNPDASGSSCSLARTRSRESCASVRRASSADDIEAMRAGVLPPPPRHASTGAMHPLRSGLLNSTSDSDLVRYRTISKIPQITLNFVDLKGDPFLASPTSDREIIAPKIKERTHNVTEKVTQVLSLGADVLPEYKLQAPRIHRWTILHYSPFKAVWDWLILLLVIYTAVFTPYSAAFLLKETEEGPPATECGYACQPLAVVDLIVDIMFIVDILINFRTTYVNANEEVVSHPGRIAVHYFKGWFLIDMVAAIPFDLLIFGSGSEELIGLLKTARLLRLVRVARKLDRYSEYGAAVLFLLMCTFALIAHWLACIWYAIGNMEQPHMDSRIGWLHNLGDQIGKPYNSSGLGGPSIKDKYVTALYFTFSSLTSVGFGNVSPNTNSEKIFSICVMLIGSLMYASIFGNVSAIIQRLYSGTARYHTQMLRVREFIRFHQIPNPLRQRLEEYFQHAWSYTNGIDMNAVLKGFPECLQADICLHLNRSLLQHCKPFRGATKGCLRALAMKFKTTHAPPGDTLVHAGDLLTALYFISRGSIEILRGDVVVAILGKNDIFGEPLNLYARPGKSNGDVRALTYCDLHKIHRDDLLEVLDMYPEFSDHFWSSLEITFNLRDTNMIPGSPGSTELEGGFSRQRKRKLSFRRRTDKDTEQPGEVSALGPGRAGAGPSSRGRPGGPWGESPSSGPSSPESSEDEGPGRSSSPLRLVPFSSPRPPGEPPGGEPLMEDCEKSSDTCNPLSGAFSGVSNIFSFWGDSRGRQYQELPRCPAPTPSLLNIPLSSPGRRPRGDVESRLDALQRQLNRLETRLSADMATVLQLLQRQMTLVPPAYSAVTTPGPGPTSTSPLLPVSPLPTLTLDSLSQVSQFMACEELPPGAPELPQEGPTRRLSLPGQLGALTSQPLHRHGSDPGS

How the values were obtained:
[1] = physchem; settings: buffer, pH 6.8
[2] = target: Voltage-gated inwardly rectifying potassium channel KCNH2 (Homo sapiens, UniProt Q12809)
[3] = physchem; settings: buffer, pH 4.5
[4] = physchem; settings: buffer, pH 2.2

Row | Compound | solubility at 24 h [1] [µg/mL] | IC50 [2] [µM] | solubility at 24 h [3] [µg/mL] | solubility at 24 h [4] [µg/mL]
1 | N#Cc1cc(COC(=O)N2C[C@@H]3[C@@H](CNC(=O)NCCCc4cnn[nH]4)[C@@H]3C2)cc(C(=O)OC(F)(F)F)c1 | 66 (≈ 123 µM) | > 10 | 70 (≈ 131 µM) | 75 (≈ 140 µM)
2 | CC(C)(C)OC(=O)N1CCCC(COC(=O)N2C[C@@H]3[C@@H](CNC(=O)c4ccc5[nH]c(=O)oc5c4)[C@@H]3C2)C1 (stereo partly drawn) | 25 (≈ 48.6 µM) | > 10 | 36 (≈ 70 µM) | 48 (≈ 93.3 µM)
